# According to patent publication US4378358A, “Benzothiazinopyrazoles having pharmacological activity” (Mediolanum Farmaceutici s.r.l., priority 1980, dated 1983):
# Read-outs that look alike come from different tables or passages of the source.
# Tests used:
# Mouse = details: per os, literature value (footnotes a, b); cited from earlier work
# in vivo = details: rat, po, 5 days, female rats, read-out: % of dead animals
# Source text: Five days subacute toxicity in rats per os
# Animals: 5 female rats for each group, average body weight: 150g.
smiles,measurement,setting,value
"COc1ccc2cc([C@H](C)C(=O)O)ccc2c1 [Naproxen, naproxen, reference compound]",LD 50 (Litchfield and Wilcoxon),Mouse,1234 mg/kg
same,mortality at 120 h,"in vivo; 50 mg/kg/day, 50 mg/kg/die per os",0%
same,mortality at 120 h,"in vivo; 100 mg/kg/day, 100 mg/kg/die per os",20%
